Nine compounds from PubChem BioAssay can be followed below.

Sequences of proteins named here, by UniProt entry; tags and fusion partners are left off.
UniProt P04637, whole entry, looked up: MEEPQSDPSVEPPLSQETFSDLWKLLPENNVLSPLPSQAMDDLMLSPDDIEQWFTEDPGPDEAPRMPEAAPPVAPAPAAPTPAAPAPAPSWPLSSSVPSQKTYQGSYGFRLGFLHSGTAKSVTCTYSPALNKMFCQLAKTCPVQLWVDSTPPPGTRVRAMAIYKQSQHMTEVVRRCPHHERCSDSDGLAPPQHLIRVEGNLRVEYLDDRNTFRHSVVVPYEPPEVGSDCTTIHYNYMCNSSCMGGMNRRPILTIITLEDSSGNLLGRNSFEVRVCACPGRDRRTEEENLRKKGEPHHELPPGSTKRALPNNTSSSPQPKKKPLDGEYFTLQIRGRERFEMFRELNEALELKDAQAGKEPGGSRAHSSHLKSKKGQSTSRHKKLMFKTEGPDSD

For part of these data: The hits were mostly taken out for another list; the other results follow. Results filed as inconclusive are left out. Some compounds were tested as several samples or in several runs, with calls that do not always agree. For part of these data: The lowest values were mostly taken out for another list; the other results follow. For part of these data: This list holds what a sample rich in strong results left over. The entries are a selection whose mix differs from that of the whole data set. Calls of active or inactive are those of the source.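 The calls were made as follows, unless noted: active = normalized viability below 100% at a tested concentration; inactive = the rest.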

Experiment [1] addresses Cellular tumor antigen p53 (Homo sapiens) (UniProt P04637). In words: kinase inhibitors altering GFP-p53 stability in HPV16-positive cells, imaging, known kinase inhibitor set, EGFP/DsRed ratio (AID 1053116; call rule not given here;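 also: cells exposed to compounds for 24 h at 37 °C before reading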). The conditions noted are these: stronger effect = higher value; EGFP object count: measured here: GFP-p53 positive objects count.
Experiment [2] in a line: polyglutamine-triggered caspase-3 activation inhibitors, cell-based (AID 1583). To be noted: polyglutamine-induced caspase-3 activation, cell assay; stronger effect = higher value;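 tested at 10 µM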.
The nature of experiment [3]: inhibitors of mitochondrial cytochrome c release, biochemical, purified mitochondria (AID 1603).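 Also: mouse liver mitochondria challenged with calcium chloride; signal normalized to the plate average as 100%.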 The conditions noted are these: stronger effect = lower value.
Experiment [4] can be described thus: inhibitors of polyQ protein aggregation (AID 1604). The conditions noted are these: polyglutamine-induced protein aggregation inhibition assay; stronger effect = higher value; tested at 2.5 µM.
Experiment [5] has as its system Aerobactin synthetase IucA (Klebsiella pneumoniae). In words: IucA aerobactin synthetase inhibitors, biochemical, Tocris library, absorbance (AID 1345561; call rule not given here;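 also: 100% = enzyme without compound and 0% = no enzyme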). To be noted: purified IucA enzyme assay, absorbance (OD) read-out; stronger effect = lower value;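 tested at 8 µM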.
The nature of experiment [6]: phospholipid biosynthesis inhibitors in animal cells, primary screen, cell-based, LOPAC library, screen 4 (AID 1347384; call rule not given here). To be noted: phospholipid biosynthesis inhibition screen, at 10 µM.
The nature of experiment [7]: growth inhibition of DIPG glioma cells, dose response, cell-based, SU-DIPG-XIII, MIPE5.0, CellTiter-Glo, qHTS (AID 1347064; cut-off not given, nearly all actives have AC50 up to about 23 µM;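 also: cells exposed to compound for 48 hours before the viability read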). To be noted: SU-DIPG-XIII viability, CellTiter-Glo ATP luminescence. For orientation: In ATP-based viability assays light output follows the ATP content of the culture.
The nature of experiment [8]: viability loss in pontine glioma line – cell-based, SU-DIPG-XXV, MIPE5.0, CellTiter-Glo, qHTS, dose response (AID 1347065; cut-off not given, nearly all actives have AC50 up to about 26 µM;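 also: cells exposed to compound for 48 hours before ATP readout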). The conditions noted are these: CellTiter-Glo ATP luminescence.
Experiment [9] is described as follows: JHH-DIPG-1 glioma cell viability, MIPE5.0 library, CellTiter-Glo luminescence, qHTS (AID 1347067; cut-off not given, nearly all actives have AC50 up to about 26 µM;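 also: cells exposed to compound for 48 hours before readout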). The conditions noted are these: JHH-DIPG-1 glioma viability, CellTiter-Glo ATP luminescence.
A short description of experiment [10]: growth inhibition of DIPG glioma cells, dose response, cell-based, SU-DIPG-XIII, MIPE4.0, CellTiter-Glo, qHTS (AID 1347061; cut-off not given, nearly all actives have AC50 up to about 37 µM;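 also: cells exposed to compound for 48 hours before readout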). The conditions noted are these: SU-DIPG-XIII viability, CellTiter-Glo ATP luminescence.
A short description of experiment [11]: growth inhibition of DIPG glioma cells, dose response, cell-based, JHH-DIPG-1, MIPE4.0, CellTiter-Glo, qHTS (AID 1347062; cut-off not given, nearly all actives have AC50 up to about 27 µM). The conditions noted are these: JHH-DIPG-1 viability, CellTiter-Glo ATP luminescence.
A short description of experiment [12]: growth inhibition of DIPG glioma cells, dose response, cell-based, SU-DIPG-IV, MIPE4.0, CellTiter-Glo, qHTS (AID 1347063; cut-off not given, nearly all actives have AC50 up to about 30 µM;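 also: compound exposure lasted 48 hours before the viability readout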). The conditions noted are these: SU-DIPG-IV viability, CellTiter-Glo ATP luminescence.
A short description of experiment [13]: SU-DIPG-VI glioma cell viability, MIPE4.0 library, CellTiter-Glo luminescence, qHTS (AID 1347066; cut-off not given, nearly all actives have AC50 up to about 30 µM;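 also: cells exposed to compound for 48 hours before readout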). To be noted: CellTiter-Glo ATP luminescence.
Experiment [14] in a line: ovarian cancer cell viability with rucaparib, profiling panel, oncology-focused library, rucaparib conditional (AID 1508598). To be noted: patient-derived ovarian cancer cells, CellTiter-Glo viability, 144 h, stronger effect = lower value.

As to `CS(=O)(=O)c1ccc(Oc2nccc(-c3c(-c4ccc(F)cc4)ncn3C3CCNCC3)n2)cc1`, in [1], the EGFP object count was 4.5 and the EGFP/DsRed ratio is inactive: 0.0478.
`O=C1NC(=O)C(c2cccc([N+](=O)[O-])c2)=C1Nc1cc(Cl)c(O)c(Cl)c1`: in experiment [1], the EGFP object count came to 0 and the EGFP/DsRed ratio was inactive: 0.
`O=C(O)c1ccc(Oc2nccc(-c3c(-c4ccc(F)cc4)ncn3C3CCNCC3)n2)cc1`: in experiment [1], the EGFP object count is 6.5 and the EGFP/DsRed ratio was inactive: 0.181.
The inhibition is the relative decrease from the control value, in per cent. In [2], `CN1C2CC[C@H]1CC(OC(=O)C(O)c1ccccc1)C2` (some centres undefined) showed an inhibition of 0.52%. In addition, the cytochrome c release ratio in experiment [3] was 1.14. For the same compound, the inhibition of aggregation in experiment [4] is -2.44%.
The term remaining activity denotes the signal under treatment as a percentage of the control signal. `O=C1NC(=O)c2c1c(-c1ccccc1)cc1[nH]c3ccc(O)cc3c21`: the remaining activity in experiment [5] was inactive: 125%. Further, the compound was classed as inactive in experiment [6].
Consider `Fc1ccc(-c2ncn(C3CCNCC3)c2-c2ccnc(Oc3ccc(Cl)cc3)n2)cc1`, for which, in experiment [1], the EGFP object count is 6 and the EGFP/DsRed ratio is inactive: 0.272.
One may read the AC50 as the concentration giving half of the maximal activity seen. Take `COc1cc(N2CCN(C(C)=O)CC2)ccc1Nc1ncc(Cl)c(Nc2ccc(N3CCN(C(C)=O)CC3)cc2OC)n1`: the AC50 is active: 3.32 µM in experiment [7], active: 1.66 µM in experiment [8] and active: 5.9 µM in experiment [9].
One may read the viability as a read-out of living cells in per cent, often relative to untreated cells. For `COC(=O)[C@H](CCCN=C(N)N)NS(=O)(=O)c1ccc(C)cc1`, the result in experiment [10], in experiment [11], in [12] and in experiment [13] was inactive. Besides, the viability is inactive: 106% in experiment [14] (at 0.000305 µM, OCI-C5x cells, with rucaparib 10 µM, 100% = cells with rucaparib alone); inactive: 139% in [14] (at 0.000305 µM, OCI-C5x cells, without rucaparib); inactive: 102% in experiment [14] (at 0.000305 µM, OCI-P5x cells, with rucaparib 20 µM, 100% = cells with rucaparib alone); inactive: 115% in experiment [14] (at 0.000305 µM, OCI-P5x cells, without rucaparib); inactive: 113% in [14] (at 0.00122 µM, OCI-C5x cells, with rucaparib 10 µM, 100% = cells with rucaparib alone); inactive: 128% in experiment [14] (at 0.00122 µM, OCI-C5x cells, without rucaparib). For the same compound, the viability in experiment [14] (at 0.00122 µM, OCI-P5x cells, with rucaparib 20 µM, 100% = cells with rucaparib alone) was inactive: 100%; in experiment [14] (at 0.00122 µM, OCI-P5x cells, without rucaparib) it was inactive: 109%; in experiment [14] (at 0.00488 µM, OCI-C5x cells, with rucaparib 10 µM, 100% = cells with rucaparib alone) it was inactive: 112%; in [14] (at 0.00488 µM, OCI-C5x cells, without rucaparib), inactive: 129%; in experiment [14] (at 0.00488 µM, OCI-P5x cells, with rucaparib 20 µM, 100% = cells with rucaparib alone), active: 79.2%; in experiment [14] (at 0.00488 µM, OCI-P5x cells, without rucaparib) it was active: 96.7%. The viability is inactive: 115% in experiment [14] (at 0.0195 µM, OCI-C5x cells, with rucaparib 10 µM, 100% = cells with rucaparib alone); inactive: 140% in experiment [14] (at 0.0195 µM, OCI-C5x cells, without rucaparib); active: 99.8% in [14] (at 0.0195 µM, OCI-P5x cells, with rucaparib 20 µM, 100% = cells with rucaparib alone); inactive: 117% in [14] (at 0.0195 µM, OCI-P5x cells, without rucaparib); inactive: 114% in experiment [14] (at 0.0781 µM, OCI-C5x cells, with rucaparib 10 µM, 100% = cells with rucaparib alone); inactive: 141% in experiment [14] (at 0.0781 µM, OCI-C5x cells, without rucaparib). Also, the viability in experiment [14] (at 0.0781 µM, OCI-P5x cells, with rucaparib 20 µM, 100% = cells with rucaparib alone) was inactive: 104%; in [14] (at 0.0781 µM, OCI-P5x cells, without rucaparib) it was inactive: 114%; in [14] (at 0.313 µM, OCI-C5x cells, with rucaparib 10 µM, 100% = cells with rucaparib alone), inactive: 110%; in [14] (at 0.313 µM, OCI-C5x cells, without rucaparib) it was inactive: 129%; in [14] (at 0.313 µM, OCI-P5x cells, with rucaparib 20 µM, 100% = cells with rucaparib alone) it was inactive: 106%; in experiment [14] (at 0.313 µM, OCI-P5x cells, without rucaparib) it was inactive: 117%. The viability in experiment [14] (at 1.25 µM, OCI-C5x cells, with rucaparib 10 µM, 100% = cells with rucaparib alone) is inactive: 120%; in experiment [14] (at 1.25 µM, OCI-C5x cells, without rucaparib), inactive: 136%; in [14] (at 1.25 µM, OCI-P5x cells, with rucaparib 20 µM, 100% = cells with rucaparib alone) it was inactive: 106%; in [14] (at 1.25 µM, OCI-P5x cells, without rucaparib) it was inactive: 122%; in experiment [14] (at 5 µM, OCI-C5x cells, with rucaparib 10 µM, 100% = cells with rucaparib alone), inactive: 103%; in experiment [14] (at 5 µM, OCI-C5x cells, without rucaparib), inactive: 136%. Besides, the viability in experiment [14] (at 5 µM, OCI-P5x cells, with rucaparib 20 µM, 100% = cells with rucaparib alone) was active: 98%; in [14] (at 5 µM, OCI-P5x cells, without rucaparib) it was inactive: 120%.
Take `O=C1NC(=O)C(c2ccccc2)=C1Nc1ccccc1`: in [1], the EGFP object count was found to be 4 and the EGFP/DsRed ratio is inactive: 0.0591.
